In PubChem BioAssay AID493014 (National Center for Advancing Translational Sciences (NCATS), 2011):
About 170 (0.05%) of roughly 340,000 compounds were called active. The inconclusive results got no clear call from the source; some entries with a clear call stand among them for comparison. Calls come from the whole dose curve; as a rule, active = well fitted inhibition curve with a large enough effect in the signal ratio, with a control signal flat (not every such curve was filed as active); inconclusive = small, poorly fitted or top-dose-only effect, or effect the other way, or a change in a side signal; inactive = flat fitted curve, though single readings scatter; the % refers to the signal ratio. Potencies of inconclusive entries are doubtful fits and often do not repeat.
Potency is the fitted concentration of half-maximal effect.

Assay: qHTS Assay to Find Inhibitors of Chronic Active B-Cell Receptor Signaling;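 for activity change, negative = inhibition: plate controls were basal doxycycline-induced cells for no effect and cells given 10 µM MG132 for full effect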
Conditions: ABC-DLBCL IkBa-CBG/CBR reporter, luminescence ratio (green luciferase fused to IkBa over red control in TMD8 lymphoma cells), 4 h; activity change, negative = inhibition: at 46.1 µM (top of the series)
Procedure, shortened: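 TMD8 human ABC-DLBCL cells with doxycycline-inducible IκBα–green luciferase fusion and unfused red luciferase, in 0.5% FBS medium; compounds up to 46 uM, 4 h at 37C. Green/red luminescence ratio, filter-overlap corrected, fitted to concentration-response curves.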
With `Cn1c2ccccc2c2nnc(NN)nc21` the Potency was inconclusive: 1.41 µM [falling, partial curve, poor fit].
In the case of `CC1CN(C(=O)c2ccccc2)OC(c2ccc3c(c2)OCO3)O1` (stereo not given), the Potency is reported as inconclusive: 20 µM [falling, partial curve].
In the case of `O=C(Nc1ccccc1)Nc1ccc(F)c([N+](=O)[O-])c1`, the “activity change, negative = inhibition” value is reported as inactive: 1.96%.
For `O=S(=O)(NCc1csc(-c2ccccc2)n1)c1ccc(Cl)s1`, the activity change, negative = inhibition was inconclusive: 15.3%.
With `CC1CCN(C(=O)CN(c2ccc3c(c2)OCCO3)S(=O)(=O)c2ccccc2)CC1` the activity change, negative = inhibition was inconclusive: 4.35%.
In the case of `Cn1c(N)c(C(=O)COC(=O)C2(c3ccc(F)cc3)CCCC2)c(=O)n(C)c1=O`, the activity change, negative = inhibition is reported as inconclusive: 8.65%.
For `COc1ccc(-n2c(=O)c3ccccc3n(Cc3ccc(F)cc3)c2=O)cc1OC`, the Potency was inconclusive: 2.06 µM [falling, partial curve, poor fit].
In the case of `COc1cccc(C(=O)OCC(=O)c2c[nH]c3ccccc23)c1OC`, the Potency is reported as inconclusive: 18.4 µM [falling, partial curve].
In the case of `CC(=O)c1cccc(NC(=O)c2ccc(N(C)S(C)(=O)=O)cc2)c1`, the “activity change, negative = inhibition” value is reported as inactive: -0.659%.
For `O=C(O)c1ccc(Cl)c(S(=O)(=O)NCC2CCCO2)c1` (stereo not given), the activity change, negative = inhibition was inconclusive: 4.3%.
For `O=C(Nc1ccc(N2CCOCC2)cc1N1CCOCC1)c1cccs1`, the activity change, negative = inhibition was inconclusive: -2.41%.
In the case of `CC(C)(C)OC(=O)C[C@@H]1C/C=C\C[C@@H](CC(=O)NCCO)C(=O)N[C@H](Cc2c[nH]c3ccccc23)COC1=O`, the “activity change, negative = inhibition” value is reported as inactive: -1.8%.
For `O=C(NCc1nc2ccccc2[nH]1)C1=C[C@H](C2CCCCC2)C[C@H](OCc2ccc(CO)cc2)O1`, the “activity change, negative = inhibition” value was inactive: 3.76%.
In the case of `O=C(CSc1ncccc1-c1nc2ccccc2[nH]1)N1CCN(c2ccccc2F)CC1`, the Potency is reported as inconclusive: 1.58 µM [falling, full curve].
For `CC1CCCC(C)N1C(=O)CSc1nnnn1-c1cccc2c1CCCC2` (stereo not given), the activity change, negative = inhibition was inconclusive: 2.21%.
With `COc1ccc(N(CC(=O)NC2CC3CCC2C3)S(=O)(=O)c2ccc(C)cc2)cc1` (stereo not given) the “activity change, negative = inhibition” value was inactive: 1.6%.
With `COc1ccccc1C(=O)Nc1nnc(-c2ccccc2)s1` the Potency was inconclusive: 5.62 µM [rising, single point].
In the case of `CCN(CC)C(=O)CCSc1nnc(-c2ccncc2)o1`, the activity change, negative = inhibition is reported as inconclusive: -0.837%.
In the case of `COc1ccc(-c2nnc(N(C)C(=O)c3ccno3)s2)cc1`, the “activity change, negative = inhibition” value is reported as inactive: -8.26%.
In the case of `CCOC(=O)CN1NC2(CCCC(C)C2)NC1=S` (stereo not given), the “activity change, negative = inhibition” value is reported as inactive: 3%.
With `Cc1ccc(OCC(=O)Nc2ccc(Cl)c(-c3nc4ncccc4o3)c2)c(C)c1` the activity change, negative = inhibition was inconclusive: 1.44%.
In the case of `CC(C)NC(=O)CC(=O)N/N=C/c1c(F)cccc1Cl`, the activity change, negative = inhibition is reported as inconclusive: 2.68%.
In the case of `Cc1cc(C)cc(Nc2nc(-c3ccc(S(=O)(=O)N4CCCC4)cc3)cs2)c1`, the “activity change, negative = inhibition” value is reported as inactive: 17.1%.
For `Cc1n[nH]c(C)c1CCCCOc1ccccc1[N+](=O)[O-]`, the “activity change, negative = inhibition” value was inactive: -19.6%.
For `O=C(N/N=C/c1ccc([N+](=O)[O-])o1)c1cn(-c2ccccc2)nc1-c1ccccc1`, the “activity change, negative = inhibition” value was inactive: 7.58%.
With `CCOc1ccc(CNC(=O)CCCn2nc(CC)n3c(cc4occc43)c2=O)cc1` the activity change, negative = inhibition was inconclusive: -11.7%.
For `C[C@]12C=CC(=O)C=C1CC[C@@H]1[C@@H]2[C@@H](O)C[C@@]2(C)[C@H]1CC[C@]2(O)C(=O)COC(=O)CCC(=O)O`, the activity change, negative = inhibition was inconclusive: -9.61%.
With `Cc1cc2ncn(-c3ncnc4sc5c(c34)CCC(C)C5)c2cc1C` (stereo not given) the activity change, negative = inhibition was inconclusive: 1.52%.
In the case of `O=c1[nH]c2ccccc2nc1/C=C(\O)c1cccs1`, the Potency is reported as inconclusive: 2.82 µM [falling, full curve].
For `COc1ccccc1Nc1nnc(SCC(=O)c2cc(C)n(CC3CCCO3)c2C)s1` (stereo not given), the activity change, negative = inhibition was inconclusive: -21.6%.
With `Fc1ccc(N/N=C2/CC(c3ccccc3)Oc3ccccc32)c(F)c1` (stereo not given) the “activity change, negative = inhibition” value was inactive: 1.55%.
In the case of `COc1cc(/C=N/NS(=O)(=O)c2ccc(C(C)(C)C)cc2)cc([N+](=O)[O-])c1O`, the Potency is reported as inconclusive: 15.8 µM [rising, partial curve, poor fit].
With `O=C(C1CC1)N1CCc2cc(S(=O)(=O)N3CCN(c4ccccc4)CC3)ccc21` the “activity change, negative = inhibition” value was inactive: 0.496%.
With `COc1ccc(-c2oc3ccccc3c2C(=O)OCc2ccc(O)cc2)cc1` the “activity change, negative = inhibition” value was inactive: -3.15%.
For `Cc1cc(N2C(=O)CC(N3CCN(c4ccc(C(=O)c5cccs5)cc4)CC3)C2=O)no1` (stereo not given), the Potency was inconclusive: 14.6 µM [falling, partial curve].
For `CC1(C)OC2CC3C4CC(F)C5=CC(=O)C=CC5(C)C4(F)C(O)CC3(C)C2(C(=O)CO)O1` (stereo not given), the activity change, negative = inhibition was inconclusive: -4.92%.
With `CC(C)(C)NC(=S)NNC(=O)[C@H]1C[C@@H]1c1ccccc1` the activity change, negative = inhibition was inconclusive: 7.55%.
In the case of `Cc1cc(C2CC(=O)Nc3ccccc3S2)c(C)s1` (stereo not given), the activity change, negative = inhibition is reported as inconclusive: 0.754%.
For `S=C(NCCc1ccccn1)Nc1ccc(Cl)c(Cl)c1`, the “activity change, negative = inhibition” value was inactive: 2.84%.
For `O=C(O)c1cccc(N2C(=O)CSC2=S)c1`, the activity change, negative = inhibition was inconclusive: -2.74%.
In the case of `O=C(CNC(=O)c1ccc2c(c1)OCCO2)N/N=C/c1ccc(Cl)cc1`, the activity change, negative = inhibition is reported as inconclusive: -26.6%.
With `O=C(Cc1cccc(C(F)(F)F)c1)Nc1ccccc1` the “activity change, negative = inhibition” value was inactive: 4.61%.
With `CCOC(=O)c1ccc(N/C=C/C(=O)C(C)(C)C)cc1` the “activity change, negative = inhibition” value was inactive: 0.317%.
With `COc1cc(S(=O)(=O)N2CCC(O)(c3cccc(C(F)(F)F)c3)CC2)ccc1-n1cnnn1` the activity change, negative = inhibition was inconclusive: 1.2%.
With `CCS(=O)(=O)N1CCC(C(=O)NCCc2ccc(OC)c(OC)c2)CC1` the “activity change, negative = inhibition” value was inactive: 3.16%.
For `O=C(N/N=C/c1cccnc1)c1[nH]ncc1Br`, the Potency was inconclusive: 31.6 µM [rising, single point].
For `CCOC(=O)c1c(NC(=O)CN2CCCc3ccccc32)sc(C(C)=O)c1C`, the activity change, negative = inhibition was inconclusive: 1.56%.
For `O=c1oc2cc(Br)ccc2n1CSC1=NCCS1`, the “activity change, negative = inhibition” value was inactive: -4.64%.
In the case of `Cc1cccn2c(=O)c(C=O)c(Sc3ncccn3)nc12`, the Potency is reported as inconclusive: 17.8 µM [falling, partial curve, poor fit].
For `COc1ccc(N(CC(=O)Nc2cccc(N(C)S(C)(=O)=O)c2)S(C)(=O)=O)cc1OC`, the “activity change, negative = inhibition” value was inactive: -6.7%.
For `c1cncc(-c2noc(-c3ccc4ccccc4c3)n2)c1`, the activity change, negative = inhibition was inconclusive: -13.5%.
With `COc1ccc(S(=O)(=O)N2N=C(C)Oc3ccccc3C2=O)cc1` the activity change, negative = inhibition was inconclusive: -20.3%.
In the case of `COc1ccc(C(=O)/C=C/c2ccc3c(c2)OCCO3)cc1`, the Potency is reported as inconclusive: 20 µM [falling, partial curve, poor fit].
With `Cc1nnc(NC(=O)c2ccc(S(=O)(=O)N3CC(C)OC(C)C3)cc2)o1` (stereo not given) the “activity change, negative = inhibition” value was inactive: -1.36%.
In the case of `COC(=O)c1cccc(NC(=O)/C=C/c2ccc([N+](=O)[O-])cc2)c1`, the activity change, negative = inhibition is reported as inconclusive: 9.32%.
For `Nc1cc(=O)[nH]c(SCC(=O)Nc2cc(Cl)cc(Cl)c2)n1`, the Potency was inconclusive: 0.058 µM [falling, full curve, poor fit].
With `COc1ccc(NC(=O)Nc2ccc(Br)cn2)cc1OC` the activity change, negative = inhibition was inconclusive: 13.1%.
With `CCOc1ccc(N2C(=O)Nc3ccccc3C2(O)C(=O)NCc2ccc3c(c2)OCO3)cc1` (stereo not given) the Potency was inconclusive: 11.2 µM [falling, partial curve].
For `O=C1[C@H]2[C@@H](c3ccc(F)cc3)N3C(=O)N(c4cccc(Cl)c4)C(=O)[C@@]3(Cc3ccc(Cl)cc3)[C@H]2C(=O)N1C1CCCCC1`, the “activity change, negative = inhibition” value was inactive: 12.8%.
With `C(=C\c1nnc(-c2cccs2)o1)/c1ccccc1` the Potency was inconclusive: 35.5 µM [rising, single point].
With `Cc1cccn2c(CNCC3(c4ccccc4)CCCC3)c(C(=O)N3CCOCC3)nc12` the Potency was inconclusive: 3.16 µM [falling, partial curve].
For `Cc1ccc(/C=C(\C#N)C(=O)NCC2CCCO2)o1` (stereo not given), the activity change, negative = inhibition was inconclusive: -1.02%.
With `O=C1/C(=C/c2ccncc2)SC(=S)N1C1CCS(=O)(=O)C1` (stereo not given) the Potency was inconclusive: 10 µM [falling, partial curve, poor fit].
For `Cc1noc(C)c1C(=O)N1CCN(c2ccccc2O)CC1`, the activity change, negative = inhibition was inconclusive: -0.929%.
For `S=C(NC1CCCCC1)NC1CC2CCC(C1)N2Cc1ccccc1` (stereo not given), the “activity change, negative = inhibition” value was inactive: -1.02%.
In the case of `CCC(CO)NCC#Cc1ccccc1` (stereo not given), the activity change, negative = inhibition is reported as inconclusive: 3.91%.
In the case of `Cc1cc2n(n1)C(c1ccccc1Cl)Nc1ccccc1-2` (stereo not given), the activity change, negative = inhibition is reported as inconclusive: 8.25%.
For `Cc1[nH]n(-c2ccc(Br)cc2)c(=O)c1/C=N/NC(=O)c1ccccc1`, the Potency was inconclusive: 31.6 µM [rising, single point].
With `COc1ccc(OC)c2[nH]c(=O)c(CCNC(=O)c3cc4ccccc4o3)cc12` the “activity change, negative = inhibition” value was inactive: 6.31%.
With `CC(C)(C)N=C1NC(=NC(C)(C)C)c2ccccc21` the “activity change, negative = inhibition” value was inactive: 3.88%.
For `Nc1c(C(=O)N2CCCCC2)sc2nc3c(cc12)CCCC3`, the “activity change, negative = inhibition” value was inactive: 9.45%.
With `O=C(NCCCC1CCCC1)C1CCC(=O)N(Cc2ccc(Cl)cc2)C1` (stereo not given) the Potency was inconclusive: 35.5 µM [falling, partial curve, poor fit].
With `CN(C)C(=O)CCc1ccc2c3c([nH]c2c1)[C@]1(C)[C@@H](C(=O)N2CCOCC2)C[C@H](CC(=O)NCc2cccc(C(F)(F)F)c2)C(=O)N1CC3` the activity change, negative = inhibition was inconclusive: -1.4%.
With `O=C(NC1CCCC1)c1cc(Nc2cccc(C(F)(F)F)c2)nc2ccccc12` the Potency was inconclusive: 2.82 µM [falling, full curve, poor fit].
For `CS(=O)(=O)N(C(=O)NC(=O)NC1CCS(=O)(=O)C1)C1CCCCC1` (stereo not given), the activity change, negative = inhibition was inconclusive: -0.594%.
In the case of `CCOc1ccc2oc(=O)cc(C)c2c1`, the activity change, negative = inhibition is reported as inconclusive: 2.9%.
With `Cc1cccc(NC(=O)Nc2cc(C)cc(C)n2)c1` the activity change, negative = inhibition was inconclusive: -0.0635%.
In the case of `CCOC(=O)C1CCCN(S(=O)(=O)CCNC(=O)c2ccc3c(c2)OCO3)C1` (stereo not given), the activity change, negative = inhibition is reported as inconclusive: 9.88%.
With `Cc1ccc(C(=O)C2=C(O)C(=O)N(CCCN3CCOCC3)C23C(=O)N(C)c2ccccc23)o1` (stereo not given) the activity change, negative = inhibition was inconclusive: 3.59%.
In the case of `CC(C)n1nc(C(=O)Nc2cccc(S(=O)(=O)N3CCOCC3)c2)c2ccccc2c1=O`, the “activity change, negative = inhibition” value is reported as inactive: -0.0249%.
